Experimental data published in publication PMC9631063, “Schisandrin B Attenuates Diabetic Cardiomyopathy by Targeting MyD88 and Inhibiting MyD88‐Dependent Inflammation” (Advanced Science, 2022).
No constants are given. Whether binding was seen depends on the method and setting. Binding seen in cells or lysates may run through a third protein. Some results given as binding are weak or reduced against the parent protein; the word gives no strength.

Chains of the proteins cited; added tags and fusions are not shown. Residues count along the entry.
UniProt Q9QUK6, residues 26-835: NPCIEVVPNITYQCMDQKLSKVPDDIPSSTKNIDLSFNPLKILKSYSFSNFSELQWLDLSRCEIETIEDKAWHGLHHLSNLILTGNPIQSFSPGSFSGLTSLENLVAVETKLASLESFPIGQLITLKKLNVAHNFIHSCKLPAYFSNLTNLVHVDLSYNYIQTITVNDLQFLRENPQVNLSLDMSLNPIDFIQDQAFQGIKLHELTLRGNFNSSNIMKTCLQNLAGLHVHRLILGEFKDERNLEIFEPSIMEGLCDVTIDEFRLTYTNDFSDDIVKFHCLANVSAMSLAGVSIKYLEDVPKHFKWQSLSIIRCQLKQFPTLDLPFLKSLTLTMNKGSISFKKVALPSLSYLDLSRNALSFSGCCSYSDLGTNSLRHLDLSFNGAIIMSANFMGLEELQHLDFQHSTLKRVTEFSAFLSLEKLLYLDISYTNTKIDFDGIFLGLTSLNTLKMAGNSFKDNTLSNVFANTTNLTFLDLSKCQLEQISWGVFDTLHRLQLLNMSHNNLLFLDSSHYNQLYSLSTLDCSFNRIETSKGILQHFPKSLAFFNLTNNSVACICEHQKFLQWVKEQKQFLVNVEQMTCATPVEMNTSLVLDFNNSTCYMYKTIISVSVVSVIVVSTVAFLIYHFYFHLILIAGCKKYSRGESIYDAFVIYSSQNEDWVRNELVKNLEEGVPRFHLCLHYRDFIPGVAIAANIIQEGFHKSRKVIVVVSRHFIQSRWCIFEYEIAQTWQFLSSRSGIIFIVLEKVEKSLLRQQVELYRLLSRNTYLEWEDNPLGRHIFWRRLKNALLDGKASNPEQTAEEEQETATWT
UniProt P22366: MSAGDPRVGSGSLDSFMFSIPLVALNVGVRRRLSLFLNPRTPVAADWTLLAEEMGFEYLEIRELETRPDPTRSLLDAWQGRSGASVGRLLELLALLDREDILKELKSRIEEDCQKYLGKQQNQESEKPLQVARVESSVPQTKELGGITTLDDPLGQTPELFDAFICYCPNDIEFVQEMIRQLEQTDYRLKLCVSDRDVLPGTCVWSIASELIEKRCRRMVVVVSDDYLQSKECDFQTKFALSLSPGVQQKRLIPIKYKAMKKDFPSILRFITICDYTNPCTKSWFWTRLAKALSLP
UniProt Q6Y1S1: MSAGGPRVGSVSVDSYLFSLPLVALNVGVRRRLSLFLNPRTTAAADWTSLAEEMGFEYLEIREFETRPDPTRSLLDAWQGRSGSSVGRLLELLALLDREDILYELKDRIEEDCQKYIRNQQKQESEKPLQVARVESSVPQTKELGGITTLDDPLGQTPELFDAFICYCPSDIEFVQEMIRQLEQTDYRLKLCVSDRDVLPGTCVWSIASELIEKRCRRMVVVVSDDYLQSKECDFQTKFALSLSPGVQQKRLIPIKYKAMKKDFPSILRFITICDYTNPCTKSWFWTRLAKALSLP

T1: Toll‐like receptor 4 (rat, endogenous) (rat (endogenous in H9C2 and rat primary cardiomyocytes)) (UniProt Q9QX05)
T1 sequence: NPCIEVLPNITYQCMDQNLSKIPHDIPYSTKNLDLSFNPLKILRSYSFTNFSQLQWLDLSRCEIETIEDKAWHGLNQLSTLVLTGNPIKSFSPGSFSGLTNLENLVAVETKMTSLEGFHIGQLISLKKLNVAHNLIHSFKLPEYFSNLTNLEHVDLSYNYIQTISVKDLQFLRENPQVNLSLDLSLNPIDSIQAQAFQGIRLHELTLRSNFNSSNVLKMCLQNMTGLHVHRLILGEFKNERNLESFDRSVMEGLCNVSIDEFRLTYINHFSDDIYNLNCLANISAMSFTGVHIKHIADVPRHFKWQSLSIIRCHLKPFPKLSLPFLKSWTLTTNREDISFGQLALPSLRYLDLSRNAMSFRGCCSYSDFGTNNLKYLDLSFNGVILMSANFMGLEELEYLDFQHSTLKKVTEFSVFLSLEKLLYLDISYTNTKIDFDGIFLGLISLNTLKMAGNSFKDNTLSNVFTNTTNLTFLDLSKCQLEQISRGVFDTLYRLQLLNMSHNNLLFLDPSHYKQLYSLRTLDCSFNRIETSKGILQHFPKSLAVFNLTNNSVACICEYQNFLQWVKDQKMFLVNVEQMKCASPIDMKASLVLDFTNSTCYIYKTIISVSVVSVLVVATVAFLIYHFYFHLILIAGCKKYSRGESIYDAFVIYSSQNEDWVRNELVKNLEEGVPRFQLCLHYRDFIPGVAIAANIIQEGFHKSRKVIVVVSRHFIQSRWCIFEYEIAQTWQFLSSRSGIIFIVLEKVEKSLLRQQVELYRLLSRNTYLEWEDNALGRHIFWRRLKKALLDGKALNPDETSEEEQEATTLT


Legend:
[1] = molecular target: Toll‐like receptor 4 (mouse, endogenous) (mouse (endogenous in heart tissue)) (UniProt Q9QUK6); test: co-IP; heart tissue lysates of control and STZ-induced type 1 diabetic C57BL/6 mice; TLR4 immunoprecipitated, MD2, TRIF and MyD88 blotted
[2] = molecular target: Toll‐like receptor 4 (mouse, endogenous) (mouse (endogenous in heart tissue)) (UniProt Q9QUK6); test: co-IP; heart tissue lysates of db/m and db/db mice (vehicle or Sch B 20 or 40 mg/kg for 8 weeks); TLR4 immunoprecipitated, MD2, TRIF and MyD88 blotted
[3] = molecular target: T1, Toll‐like receptor 4 (rat, endogenous) (rat (endogenous in H9C2 and rat primary cardiomyocytes)); test: co-IP; lysates of rat primary cardiomyocytes (control, HG 30 min, with or without 10 uM Sch B pretreatment 1 h); MD2/TLR4, TLR4/TRIF and TLR4/MyD88 complexes; protein G-Sepharose
[4] = molecular target: T1, Toll‐like receptor 4 (rat, endogenous) (rat (endogenous in H9C2 and rat primary cardiomyocytes)); test: co-IP; lysates of H9C2 cells (control, HG 33 mM glucose 30 min, with or without 10 uM Sch B pretreatment 1 h); TLR4 immunoprecipitated and TRIF, MyD88 blotted; MD2 immunoprecipitated and TLR4 blotted; TLR2-MyD88 co-IP (Figure S5); protein G-Sepharose

binding [1] | binding [2] | binding [3] | binding [4] | Molecule
binds | binds | – | – | myeloid differentiation primary response 88 (mouse, endogenous) (from UniProt P22366 1-296)
– | – | binds | binds | myeloid differentiation primary response 88 (rat, endogenous) (from UniProt Q6Y1S1 1-296)
binds | binds | – | – | myeloid differentiation factor 2 (mouse, endogenous) (protein, UniProt Q9JHF9 19-160) EKQQWFCNSSDAIISYSYCDHLKFPISISSEPCIRLRGTNGFVHVEFIPRGNLKYLYFNLFISVNSIELPKRKEVLCHGHDDDYSFCRALKGETVNTSIPFSFEGILFPKGHYRCVAEAIAGDTEEKLFCLNFTIIHRRDVN
binds | binds | – | – | TIR‐domain‐containing adapter‐inducing interferon‐β (mouse, endogenous) (protein, UniProt Q80UF7 1-732) MDNPGPSLRGAFGILGALERDRLTHLKHKLGSLCSGSQESKLLHAMVLLALGQDTEARVSLESLKMNTVAQLVAHQWADMETTEGPEEPPDLSWTVARLYHLLAEENLCPASTRDMAYQVALRDFASQGDHQLGQLQNEAWDRCSSDIKGDPSGFQPLHSHQGSLQPPSASPAVTRSQPRPIDTPDWSWGHTLHSTNSTASLASHLEISQSPTLAFLSSHHGTHGPSKLCNTPLDTQEPQLVPEGCQEPEEISWPPSVETSVSLGLPHEISVPEVSPEEASPILPDALAAPDTSVHCPIECTELSTNSRSPLTSTTESVGKQWPITSQRSPQVPVGDDSLQNTTSSSPPAQPPSLQASPKLPPSPLSSASSPSSYPAPPTSTSPVLDHSETSDQKFYNFVVIHARADEQVALRIREKLETLGVPDGATFCEEFQVPGRGELHCLQDAIDHSGFTILLLTASFDCSLSLHQINHALMNSLTQSGRQDCVIPLLPLECSQAQLSPDTTRLLHSIVWLDEHSPIFARKVANTFKTQKLQAQRVRWKKAQEARTLKEQSIQLEAERQNVAAISAAYTAYVHSYRAWQAEMNKLGVAFGKNLSLGTPTPSWPGCPQPIPSHPQGGTPVFPYSPQPPSFPQPPCFPQPPSFPQPPSFPLPPVSSPQSQSFPSASSPAPQTPGPQPLIIHHAQMVQLGVNNHMWGHTGAQSSDDKTECSENPCMGPLTDQGEPLLETPE
